Experimental data published in paper PMC3648559.
Results are given in words; binding and its absence hold for the method and conditions named. In cells and extracts the contact can be indirect. Some results given as binding are weak or reduced against the parent protein; the word gives no strength.

Protein sequences, listed by entry. Tags and fused reporters are not part of them.
UniProt P31749: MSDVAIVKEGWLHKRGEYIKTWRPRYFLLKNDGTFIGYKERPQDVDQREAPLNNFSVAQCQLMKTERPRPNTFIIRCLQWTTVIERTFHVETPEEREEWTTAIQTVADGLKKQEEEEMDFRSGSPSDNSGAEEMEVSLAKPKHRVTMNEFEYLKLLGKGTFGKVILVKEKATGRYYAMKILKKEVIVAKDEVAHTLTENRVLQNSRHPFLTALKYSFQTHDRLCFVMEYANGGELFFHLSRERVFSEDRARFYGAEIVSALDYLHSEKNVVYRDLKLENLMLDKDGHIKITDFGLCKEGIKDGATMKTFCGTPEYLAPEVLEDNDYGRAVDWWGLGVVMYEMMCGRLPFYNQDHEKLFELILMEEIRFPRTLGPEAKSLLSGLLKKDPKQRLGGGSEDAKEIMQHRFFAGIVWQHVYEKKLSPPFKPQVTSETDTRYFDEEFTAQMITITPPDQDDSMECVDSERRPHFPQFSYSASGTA

Target: CA916798 (human (endogenous in A549))
Experiment: co-IP; endogenous proteins in lysates of A549 and A549/CDDP cells (20 mM Tris, 150 mM NaCl, 1% TritonX-100); IP with anti-CA916798 and blot for p-AKT1 (ser473), and the reverse; Protein A-Sepharose; naive IgG as negative control

phosphorylated AKT1 (ser473) (from UniProt P31749 1-480)
binding: binds
